PubChem BioAssay AID652243 – Drosophila RNAi Screening Center – 2013
The screen tested about 24,000 reagents; shown is a random part of those with a known target gene and a result. In the full data, 246 (1%) are marked active. 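Plates not normalised; calls are printed but the firefly/Renilla ratio behind them is not deposited; fold cut for lowering reported inconsistently.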 Raw values vary from plate to plate and are shown uncorrected. Reagents against one gene are numbered here. Names joined by + are all predicted targets of the reagent. No sequences are given here. The record does not give: the amount of reagent.

Assay: 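Fly regulators of androgen-dependent reporter output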 (primary screen)
Cell system: Drosophila S2R+ cells
Reagents: long dsRNA against Drosophila genes
Duration: 72 h (48 h, then 24 h hormone)
Conditions: synthetic androgen R1881 at 10 nM for 24 h
Measurement: 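Per-well raw luminescence of the androgen-driven firefly reporter and of the Renilla control, two replicates each, without normalisation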
Scale: firefly reporter light: higher = more light from androgen-responsive reporter; Renilla control light: higher = more constitutive control signal (cell number, transfection)
Call rule: 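Hit when the log firefly-to-Renilla ratio dropped or increased by a fixed fold versus the mean of GFP or LacZ controls across duplicate plates; lowering cut given as 1.5 and as 3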
Meaning of the calls: active = hit: reporter lowered or raised; inactive = no hit

With knock-down of pot #1 the results were firefly reporter light, replicate 1 = 58016; firefly reporter light, replicate 2 = 85032; Renilla control light, replicate 1 = 4.50e5; Renilla control light, replicate 2 = 3.85e5; inactive.
pot #2 showed firefly reporter light, replicate 1 = 4.12e5; firefly reporter light, replicate 2 = 3.16e5; Renilla control light, replicate 1 = 7.18e5; Renilla control light, replicate 2 = 4.45e5; inactive.
pb #1 showed firefly reporter light, replicate 1 = 2.11e5; firefly reporter light, replicate 2 = 2.80e5; Renilla control light, replicate 1 = 2.18e5; Renilla control light, replicate 2 = 2.16e5; inactive.
pb #2 gave firefly reporter light, replicate 1 = 91391; firefly reporter light, replicate 2 = 56249; Renilla control light, replicate 1 = 2.10e6; Renilla control light, replicate 2 = 1.01e6; inactive.
Depletion of pb #3 resulted in: firefly reporter light, replicate 1 = 3.59e5; firefly reporter light, replicate 2 = 3.05e5; Renilla control light, replicate 1 = 3.70e5; Renilla control light, replicate 2 = 4.89e5; inactive.
CG42331 #1 showed firefly reporter light, replicate 1 = 2.49e5; firefly reporter light, replicate 2 = 2.63e5; Renilla control light, replicate 1 = 2.16e6; Renilla control light, replicate 2 = 3.25e6; inactive.
For CG42331 #2, the entry reads firefly reporter light, replicate 1 = 2.17e5; firefly reporter light, replicate 2 = 2.49e5; Renilla control light, replicate 1 = 2.17e6; Renilla control light, replicate 2 = 2.41e6; inactive.
Against CG42331 #3, the values are firefly reporter light, replicate 1 = 3.41e5; firefly reporter light, replicate 2 = 3.70e5; Renilla control light, replicate 1 = 7.95e5; Renilla control light, replicate 2 = 6.45e5; inactive.
Atg16 #1 scored firefly reporter light, replicate 1 = 1.05e5; firefly reporter light, replicate 2 = 75537; Renilla control light, replicate 1 = 6.80e5; Renilla control light, replicate 2 = 4.45e5; inactive.
Depletion of Atg16 #2 resulted in: firefly reporter light, replicate 1 = 1.24e5; firefly reporter light, replicate 2 = 98934; Renilla control light, replicate 1 = 1.36e6; Renilla control light, replicate 2 = 1.47e6; inactive.
With knock-down of Atg16 #3 the results were firefly reporter light, replicate 1 = 1.93e5; firefly reporter light, replicate 2 = 1.96e5; Renilla control light, replicate 1 = 1.61e6; Renilla control light, replicate 2 = 2.64e6; inactive.
With knock-down of Cfp1, the screen gave firefly reporter light, replicate 1 = 2.31e5; firefly reporter light, replicate 2 = 2.33e5; Renilla control light, replicate 1 = 2.10e6; Renilla control light, replicate 2 = 2.75e6; inactive.
CG5793 + Obp93a scored firefly reporter light, replicate 1 = 3.55e5; firefly reporter light, replicate 2 = 3.47e5; Renilla control light, replicate 1 = 3.13e6; Renilla control light, replicate 2 = 3.54e6; inactive.

Reformatted: results already given
{"Target gene":"pot","dsRNA no.":2,"firefly reporter light, replicate 1":4.12e5,"firefly reporter light, replicate 2":3.16e5,"Renilla control light, replicate 1":7.18e5,"Renilla control light, replicate 2":4.45e5,"call":"inactive"}
{"Target gene":"pb","dsRNA no.":1,"firefly reporter light, replicate 1":2.11e5,"firefly reporter light, replicate 2":2.80e5,"Renilla control light, replicate 1":2.18e5,"Renilla control light, replicate 2":2.16e5,"call":"inactive"}
{"Target gene":"pb","dsRNA no.":2,"firefly reporter light, replicate 1":91391,"firefly reporter light, replicate 2":56249,"Renilla control light, replicate 1":2.10e6,"Renilla control light, replicate 2":1.01e6,"call":"inactive"}
{"Target gene":"pb","dsRNA no.":3,"firefly reporter light, replicate 1":3.59e5,"firefly reporter light, replicate 2":3.05e5,"Renilla control light, replicate 1":3.70e5,"Renilla control light, replicate 2":4.89e5,"call":"inactive"}

Next entries:
CG18539 gave firefly reporter light, replicate 1 = 1.05e5; firefly reporter light, replicate 2 = 1.62e5; Renilla control light, replicate 1 = 2.05e6; Renilla control light, replicate 2 = 2.05e6; inactive.
After knock-down of CG10591 #1 the results were firefly reporter light, replicate 1 = 5.94e5; firefly reporter light, replicate 2 = 6.00e5; Renilla control light, replicate 1 = 1.78e6; Renilla control light, replicate 2 = 2.02e6; inactive.
For CG10591 #2, the values are firefly reporter light, replicate 1 = 4.15e5; firefly reporter light, replicate 2 = 4.26e5; Renilla control light, replicate 1 = 6.54e5; Renilla control light, replicate 2 = 7.41e5; inactive.
For dj #1 the deposit lists firefly reporter light, replicate 1 = 1.51e5; firefly reporter light, replicate 2 = 1.31e5; Renilla control light, replicate 1 = 2.85e6; Renilla control light, replicate 2 = 2.55e6; inactive.
dj #2 showed firefly reporter light, replicate 1 = 6.64e5; firefly reporter light, replicate 2 = 3.87e5; Renilla control light, replicate 1 = 3.72e5; Renilla control light, replicate 2 = 4.16e5; inactive.
Against Sar1 #1, the entry reads firefly reporter light, replicate 1 = 78985; firefly reporter light, replicate 2 = 94147; Renilla control light, replicate 1 = 1.05e6; Renilla control light, replicate 2 = 1.27e6; inactive.
Against Sar1 #2 the deposit lists firefly reporter light, replicate 1 = 4.34e5; firefly reporter light, replicate 2 = 6.51e5; Renilla control light, replicate 1 = 1.33e6; Renilla control light, replicate 2 = 1.80e6; inactive.
Silencing of Sar1 #3 resulted in: firefly reporter light, replicate 1 = 3.24e5; firefly reporter light, replicate 2 = 3.10e5; Renilla control light, replicate 1 = 1.32e6; Renilla control light, replicate 2 = 6.44e5; inactive.
With knock-down of Rpt3 #1 the results were firefly reporter light, replicate 1 = 2.34e5; firefly reporter light, replicate 2 = 2.00e5; Renilla control light, replicate 1 = 2.06e6; Renilla control light, replicate 2 = 2.27e6; inactive.
Knock-down of Rpt3 #2 resulted in: firefly reporter light, replicate 1 = 3.16e5; firefly reporter light, replicate 2 = 1.59e5; Renilla control light, replicate 1 = 8.51e5; Renilla control light, replicate 2 = 2.98e5; inactive.
psq #1 scored firefly reporter light, replicate 1 = 7.09e5; firefly reporter light, replicate 2 = 9.88e5; Renilla control light, replicate 1 = 1.49e6; Renilla control light, replicate 2 = 1.55e6; inactive.
With knock-down of psq #2, the screen gave firefly reporter light, replicate 1 = 8.87e5; firefly reporter light, replicate 2 = 8.98e5; Renilla control light, replicate 1 = 1.92e6; Renilla control light, replicate 2 = 1.78e6; inactive.
For Lkb1 #1 the deposit lists firefly reporter light, replicate 1 = 43066; firefly reporter light, replicate 2 = 49194; Renilla control light, replicate 1 = 2.72e5; Renilla control light, replicate 2 = 4.04e5; inactive.
Lkb1 #2 scored inactive.
Lkb1 #3 showed inactive.
